Experimental data from article PMC5370020.
Changes are numbered by the printed parent chain. No constants are given. Whether binding was seen depends on the method and setting. Binding seen in cells or lysates may run through a third protein. Some entries that bind do so weakly or less than the wild type. Sequences can lack the tags named with a protein.

The chains behind the UniProt entries cited, without tags or fusion partners.
UniProt O75376: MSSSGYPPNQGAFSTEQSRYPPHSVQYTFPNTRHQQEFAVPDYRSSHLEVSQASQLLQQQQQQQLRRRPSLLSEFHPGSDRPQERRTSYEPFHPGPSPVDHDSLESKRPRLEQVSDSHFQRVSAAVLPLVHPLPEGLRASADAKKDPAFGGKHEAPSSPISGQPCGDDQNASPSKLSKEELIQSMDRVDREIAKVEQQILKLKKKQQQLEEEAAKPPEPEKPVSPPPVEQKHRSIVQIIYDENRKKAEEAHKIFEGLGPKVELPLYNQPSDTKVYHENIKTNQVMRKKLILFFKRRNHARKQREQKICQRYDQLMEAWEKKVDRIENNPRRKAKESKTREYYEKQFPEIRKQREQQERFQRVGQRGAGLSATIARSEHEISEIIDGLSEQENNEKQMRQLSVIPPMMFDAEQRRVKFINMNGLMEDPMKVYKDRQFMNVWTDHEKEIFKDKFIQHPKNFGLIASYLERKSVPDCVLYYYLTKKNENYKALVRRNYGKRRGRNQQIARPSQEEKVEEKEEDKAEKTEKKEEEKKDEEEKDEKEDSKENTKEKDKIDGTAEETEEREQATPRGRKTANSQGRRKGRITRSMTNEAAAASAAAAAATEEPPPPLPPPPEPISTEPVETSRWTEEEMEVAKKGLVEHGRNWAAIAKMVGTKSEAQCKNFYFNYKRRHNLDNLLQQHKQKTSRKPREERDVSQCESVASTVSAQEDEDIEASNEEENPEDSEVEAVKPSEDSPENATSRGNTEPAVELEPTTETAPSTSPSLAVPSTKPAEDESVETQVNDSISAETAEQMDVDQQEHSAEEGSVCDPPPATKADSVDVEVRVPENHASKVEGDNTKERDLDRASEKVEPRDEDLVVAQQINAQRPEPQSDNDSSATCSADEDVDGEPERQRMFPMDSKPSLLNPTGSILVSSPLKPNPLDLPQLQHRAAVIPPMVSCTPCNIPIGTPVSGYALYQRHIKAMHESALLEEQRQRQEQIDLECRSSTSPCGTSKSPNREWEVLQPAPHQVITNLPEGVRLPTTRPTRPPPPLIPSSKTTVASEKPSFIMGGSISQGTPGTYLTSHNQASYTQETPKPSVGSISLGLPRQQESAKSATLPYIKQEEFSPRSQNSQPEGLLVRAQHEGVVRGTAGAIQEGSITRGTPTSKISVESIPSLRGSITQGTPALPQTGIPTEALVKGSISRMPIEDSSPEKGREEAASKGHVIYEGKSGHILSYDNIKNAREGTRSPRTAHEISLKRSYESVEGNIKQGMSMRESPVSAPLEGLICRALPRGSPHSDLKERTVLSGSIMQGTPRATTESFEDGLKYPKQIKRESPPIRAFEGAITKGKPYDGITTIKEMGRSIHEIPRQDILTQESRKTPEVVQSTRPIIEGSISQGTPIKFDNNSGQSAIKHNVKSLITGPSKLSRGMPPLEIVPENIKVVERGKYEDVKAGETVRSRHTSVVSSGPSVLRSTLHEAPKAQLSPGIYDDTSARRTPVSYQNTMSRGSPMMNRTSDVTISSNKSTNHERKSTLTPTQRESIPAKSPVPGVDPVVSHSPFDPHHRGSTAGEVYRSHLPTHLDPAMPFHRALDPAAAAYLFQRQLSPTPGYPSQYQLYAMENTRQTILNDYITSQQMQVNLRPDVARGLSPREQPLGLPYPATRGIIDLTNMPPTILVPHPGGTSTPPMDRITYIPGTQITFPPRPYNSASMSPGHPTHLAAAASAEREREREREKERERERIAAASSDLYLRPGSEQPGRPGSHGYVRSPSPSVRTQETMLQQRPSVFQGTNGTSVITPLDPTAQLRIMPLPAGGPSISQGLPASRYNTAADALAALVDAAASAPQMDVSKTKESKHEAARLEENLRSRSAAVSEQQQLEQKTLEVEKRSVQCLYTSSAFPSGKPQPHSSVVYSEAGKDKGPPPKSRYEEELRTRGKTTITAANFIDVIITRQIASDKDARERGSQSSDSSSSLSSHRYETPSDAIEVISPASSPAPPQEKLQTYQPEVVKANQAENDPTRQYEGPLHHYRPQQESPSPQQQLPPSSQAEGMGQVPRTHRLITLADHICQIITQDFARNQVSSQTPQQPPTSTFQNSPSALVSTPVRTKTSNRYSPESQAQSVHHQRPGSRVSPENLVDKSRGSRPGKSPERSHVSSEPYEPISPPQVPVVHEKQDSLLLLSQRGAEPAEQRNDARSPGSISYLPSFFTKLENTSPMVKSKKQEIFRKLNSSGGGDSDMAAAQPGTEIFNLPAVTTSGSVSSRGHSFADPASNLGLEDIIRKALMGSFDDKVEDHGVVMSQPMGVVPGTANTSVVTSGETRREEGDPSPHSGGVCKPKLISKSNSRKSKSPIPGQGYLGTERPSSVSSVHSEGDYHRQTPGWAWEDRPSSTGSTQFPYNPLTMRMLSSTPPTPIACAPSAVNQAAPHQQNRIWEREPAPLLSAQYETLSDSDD

Assays:
Test in all cases: co-IP; whole cell lysates of cells transfected with GFP-TBL1XR1 (293T by the abstract); GFP antibody and protein G magnetic beads, 2 h at 4°C; blotted for NCoR and HDAC3
[1] = biological target: T1, GFP-tagged TBL1XR1 H348Q (human) (UniProt Q9BZK7)
T1 sequence: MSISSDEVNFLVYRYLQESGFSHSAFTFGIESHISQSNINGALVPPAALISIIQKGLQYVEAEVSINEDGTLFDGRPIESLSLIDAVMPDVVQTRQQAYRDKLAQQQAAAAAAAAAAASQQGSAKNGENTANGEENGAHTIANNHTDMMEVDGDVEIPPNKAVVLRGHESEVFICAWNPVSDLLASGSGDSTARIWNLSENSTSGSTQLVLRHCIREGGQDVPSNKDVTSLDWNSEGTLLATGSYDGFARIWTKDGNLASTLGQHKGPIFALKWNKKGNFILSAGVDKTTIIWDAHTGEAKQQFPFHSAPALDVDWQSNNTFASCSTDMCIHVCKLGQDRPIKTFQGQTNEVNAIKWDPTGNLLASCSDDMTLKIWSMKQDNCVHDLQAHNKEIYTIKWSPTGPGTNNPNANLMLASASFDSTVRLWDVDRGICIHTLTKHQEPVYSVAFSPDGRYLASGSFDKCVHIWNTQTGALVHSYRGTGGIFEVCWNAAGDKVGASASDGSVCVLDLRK

[2] = biological target: T2, GFP-tagged TBL1XR1 L282P (human) (UniProt Q9BZK7)
T2 sequence: T1 sequence with L282P, Q348H

[3] = biological target: T3, GFP-tagged wild-type TBL1XR1 (human) (UniProt Q9BZK7)
T3 sequence: T1 sequence with Q348H

[4] = biological target: T4, GFP-tagged TBL1XR1 G187R (human) (UniProt Q9BZK7)
T4 sequence: T1 sequence with G187R, Q348H

[5] = biological target: T5, GFP-tagged TBL1XR1 S459N (human) (UniProt Q9BZK7)
T5 sequence: T1 sequence with Q348H, S459N

binding [1]: binds
binding [2]: binds
binding [3]: binds
binding [4]: binds
binding [5]: binds
Substance: nuclear receptor corepressor (NCoR) (from UniProt O75376 1-2440)
